According to patent US7927581B2 (Factor 1A, LLC, priority 2001, dated 2011):

Assay: general procedure: Fmoc solid-phase peptide synthesis; 1,3-bis-(aminomethyl)-benzene trityl NovaSyn TGT resin (diaminotrityl resin)
Conditions: whole synthesis, scale of the general procedure 3.39 g resin (measured substitution=0.59 mmol)

## H2N-Leu-Pro-Cys-Asp-Tyr-Tyr-Gly-Thr-Cys-Bip-Asp-CO—NHCH2C6H4CH2NH2
  final purity (method not given): 98-100%
